# Assay results as given in the supplement of paper PMC8728848.
# Some of the results follow.
# B1: SLLPI (Homo sapiens), Q8IXA5 (protein)
# chain: MVSALRGAPLIRVHSSPVSSPSVSGPRRLVSCLSSQSSALSQSGGGSTSAAGIEARSRALRRRWCPAGIMLLALVCLLSCLLPSSEAKLYGRCELARVLHDFGLDGYRGYSLADWVCLAYFTSGFNAAALDYEADGSTNNGIFQINSRRWCSNLTPNVPNVCRMYCSDLLNPNLKDTVICAMKITQEPQGLGYWEAWRHHCQGKDLTEWVDGCDF
# Tests used:
# Assay in all cases: glycan array binding signal (z-score within array); higher = stronger binding
# Conditions in all cases: glycan notation: IUPAC condensed, linker removed
# [1] = molecular target: Fuc(a1-3)[Gal(b1-4)]GlcNAc
# Summary of the method: (§1)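 Glycan array data came from 3228 arrays in the Consortium for Functional Glycomics database, and only arrays with an available protein sequence were kept. Glycan names were put into IUPAC-condensed notation, and columns mapping to the same glycan were averaged. The binding signal is a within-array Z-score, averaged across arrays of one protein sequence run at different concentrations or buffers and across linkers. A negative Z-score can be read as non-binding.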
# [2] = molecular target: Fuc(a1-3)[Gal(b1-4)]GlcNAc(b1-2)Man(a1-3)[Fuc(a1-3)[Gal(b1-4)]GlcNAc(b1-2)Man(a1-6)]Man(b1-4)GlcNAc(b1-4)GlcNAc
# Summary of the method: as §1
# [3] = molecular target: Fuc(a1-3)[Gal(b1-4)]GlcNAc(b1-2)Man(a1-6)[Gal(b1-4)GlcNAc(b1-2)Man(a1-3)]Man(b1-4)GlcNAc(b1-4)GlcNAc
# Summary of the method: as §1
# [4] = molecular target: Fuc(a1-3)[Gal(b1-4)]GlcNAc(b1-3)Gal(b1-3)[Fuc(a1-4)]GlcNAc
# Summary of the method: as §1
# [5] = molecular target: Fuc(a1-3)[Gal(b1-4)]GlcNAc(b1-4)Gal(b1-4)[Fuc(a1-3)]GlcNAc
# Summary of the method: as §1
# [6] = molecular target: Fuc(a1-3)[Gal(b1-4)]GlcNAc(b1-4)Gal(b1-4)[Fuc(a1-3)]GlcNAc(b1-4)Gal(b1-4)[Fuc(a1-3)]GlcNAc
# Summary of the method: as §1
# [7] = molecular target: Fuc(a1-3)[Gal(b1-4)]GlcNAc6S
# Summary of the method: as §1
# [8] = molecular target: Fuc(a1-3)[Gal3S(b1-4)]Glc6S
# Summary of the method: as §1
# [9] = molecular target: Fuc(a1-3)[Gal3S(b1-4)]GlcNAc
# Summary of the method: as §1
# [10] = molecular target: Fuc(a1-3)[Gal3S(b1-4)]GlcNAc6S
# Summary of the method: as §1
# [11] = molecular target: Fuc(a1-3)[GalNAc(b1-4)]GlcNAc
# Summary of the method: as §1
# Fuc(a1-4)GlcNAc = molecular target: Fuc(a1-4)GlcNAc
# Summary of the method: as §1
# Fuc(b1-3)GlcNAc = molecular target: Fuc(b1-3)GlcNAc
# Summary of the method: as §1
# Gal(a1-2)Gal = molecular target: Gal(a1-2)Gal
# Summary of the method: as §1
# Gal(a1-3)Gal = molecular target: Gal(a1-3)Gal
# Summary of the method: as §1
# Gal(a1-3)Gal(b1-3)GlcNAc = molecular target: Gal(a1-3)Gal(b1-3)GlcNAc
# Summary of the method: as §1
# Gal(a1-3)Gal(b1-4)Glc = molecular target: Gal(a1-3)Gal(b1-4)Glc
# Summary of the method: as §1
# Gal(a1-3)Gal(b1-4)GlcNAc = molecular target: Gal(a1-3)Gal(b1-4)GlcNAc
# Summary of the method: as §1
# [12] = molecular target: Gal(a1-3)Gal(b1-4)[Fuc(a1-3)]GlcNAc
# Summary of the method: as §1
# Gal(a1-3)GalNAc = molecular target: Gal(a1-3)GalNAc
# Summary of the method: as §1
# [13] = molecular target: Gal(a1-3)[Gal(a1-4)]Gal(b1-4)GlcNAc
# Summary of the method: as §1
# Gal(a1-4)Gal(b1-4)Glc = molecular target: Gal(a1-4)Gal(b1-4)Glc
# Summary of the method: as §1
# Gal(a1-4)Gal(b1-4)GlcNAc = molecular target: Gal(a1-4)Gal(b1-4)GlcNAc
# Summary of the method: as §1
# Gal(a1-4)GlcNAc = molecular target: Gal(a1-4)GlcNAc
# Summary of the method: as §1
# Gal(a1-6)Glc = molecular target: Gal(a1-6)Glc
# Summary of the method: as §1
# Gal(b1-2)Gal = molecular target: Gal(b1-2)Gal
# Summary of the method: as §1
# Gal(b1-3)Gal = molecular target: Gal(b1-3)Gal
# Summary of the method: as §1
# Gal(b1-3)Gal(b1-4)GlcNAc = molecular target: Gal(b1-3)Gal(b1-4)GlcNAc
# Summary of the method: as §1
# Gal(b1-3)GalNAc = molecular target: Gal(b1-3)GalNAc
# Summary of the method: as §1
# [14] = molecular target: Gal(b1-3)GalNAc(b1-3)Gal(a1-4)Gal(b1-4)Glc
# Summary of the method: as §1
# [15] = molecular target: Gal(b1-3)GalNAc(b1-4)Gal(b1-4)Glc
# Summary of the method: as §1
# [16] = molecular target: Gal(b1-3)GalNAc(b1-4)[Neu5Ac(a2-3)]Gal(b1-4)Glc
# Summary of the method: as §1
# Gal(b1-3)GlcNAc = molecular target: Gal(b1-3)GlcNAc
# Summary of the method: as §1
# [17] = molecular target: Gal(b1-3)GlcNAc(b1-2)Man(a1-3)[Gal(b1-3)GlcNAc(b1-2)Man(a1-6)]Man(b1-4)GlcNAc(b1-4)GlcNAc
# Summary of the method: as §1
# [18] = molecular target: Gal(b1-3)GlcNAc(b1-3)Gal(b1-3)GlcNAc
# Summary of the method: as §1
# [19] = molecular target: Gal(b1-3)GlcNAc(b1-3)Gal(b1-4)Glc
# Summary of the method: as §1
# [20] = molecular target: Gal(b1-3)GlcNAc(b1-3)Gal(b1-4)GlcNAc
# Summary of the method: as §1
# [21] = molecular target: Gal(b1-3)[Fuc(a1-4)]GlcNAc
# Summary of the method: as §1
binder,measurement,setting,value
B1,glycan array binding signal (z-score),[1],1.31
same,glycan array binding signal (z-score),[2],1.2
same,glycan array binding signal (z-score),[3],-0.298
same,glycan array binding signal (z-score),[4],-0.385
same,glycan array binding signal (z-score),[5],-0.051
same,glycan array binding signal (z-score),[6],-0.391
same,glycan array binding signal (z-score),[7],0.695
same,glycan array binding signal (z-score),[8],1.65
same,glycan array binding signal (z-score),[9],0.407
same,glycan array binding signal (z-score),[10],1.31
same,glycan array binding signal (z-score),[11],0.02
same,glycan array binding signal (z-score),Fuc(a1-4)GlcNAc,-0.545
same,glycan array binding signal (z-score),Fuc(b1-3)GlcNAc,-0.512
same,glycan array binding signal (z-score),Gal(a1-2)Gal,0.011
same,glycan array binding signal (z-score),Gal(a1-3)Gal,0.116
same,glycan array binding signal (z-score),Gal(a1-3)Gal(b1-3)GlcNAc,-0.17
same,glycan array binding signal (z-score),Gal(a1-3)Gal(b1-4)Glc,-0.234
same,glycan array binding signal (z-score),Gal(a1-3)Gal(b1-4)GlcNAc,-0.505
same,glycan array binding signal (z-score),[12],0.302
same,glycan array binding signal (z-score),Gal(a1-3)GalNAc,0.227
same,glycan array binding signal (z-score),[13],0.947
same,glycan array binding signal (z-score),Gal(a1-4)Gal(b1-4)Glc,0.048
same,glycan array binding signal (z-score),Gal(a1-4)Gal(b1-4)GlcNAc,-0.314
same,glycan array binding signal (z-score),Gal(a1-4)GlcNAc,-0.139
same,glycan array binding signal (z-score),Gal(a1-6)Glc,-0.362
same,glycan array binding signal (z-score),Gal(b1-2)Gal,0.717
same,glycan array binding signal (z-score),Gal(b1-3)Gal,-0.241
same,glycan array binding signal (z-score),Gal(b1-3)Gal(b1-4)GlcNAc,-0.292
same,glycan array binding signal (z-score),Gal(b1-3)GalNAc,-0.23
same,glycan array binding signal (z-score),[14],-0.26
same,glycan array binding signal (z-score),[15],-0.063
same,glycan array binding signal (z-score),[16],-0.386
same,glycan array binding signal (z-score),Gal(b1-3)GlcNAc,-0.29
same,glycan array binding signal (z-score),[17],0.777
same,glycan array binding signal (z-score),[18],-0.289
same,glycan array binding signal (z-score),[19],0.044
same,glycan array binding signal (z-score),[20],-0.443
same,glycan array binding signal (z-score),[21],-0.111

# Rewritten tab-delimited: part of the list above.
binder	measurement	setting	value
B1	glycan array binding signal (z-score)	[8]	1.65
same	glycan array binding signal (z-score)	[9]	0.407
